Part of at least one peptide drawing is inferred or uncertain, most often the ends. Peptide text beside a SMILES is read from it. * marks the point of attachment. For = O=C*
Assays:
[1] = tested on: murine model of allergen-induced chronic asthma (OVA immunized BALB/c mice)
[2] = tested on: murine model of allergen-induced chronic asthma subjected to repeated allergic challenge (Balb/C mice); type: in vivo, mouse
Method: This example reports the results of tests wherein mice having induced chronic asthma and having been treated in accord with the present invention are subsequently further challenged intranasally (“IN”) with OVA. Materials were the same as in Example 1. Balb/C mice were repeatedly immunized with OVA over a six month period as in Example 1. Thereafter, the mice were treated with 50 μg of HKX per dose intranasally for eight doses over a 16 day period, as in example 1. Then, a further regimen administered a 50 μg dose of HK-X 15-30 minutes prior to intranasal OVA challenge. This regimen was repeated for a total of three days. On the day after the last treatment the mice were sacrificed. HK-X was prepared in the same manner as in Example 1. […] The trachea and left lung (upper and lower lobes) were collected and fixed in 10% formalin at 20° C. for 15 hr. After embedding in paraffin, the tissues were cut into 5 μm sections. Eosinophils were stained in the lung tissue with Modified Discombe's Solution. […] Airway mucus and mucus cells were identified by the following staining methods: Methylene blue, Mucicarmine, Toluidine blue, and Alcian blue. Occlusion of the airway diameter by mucus was assessed on a semiquantitative scale ranging from 0 to 5+. For each mouse, individuals blinded to the protocol design assessed 10 airway sections randomly distributed throughout the left lung for mucus occlusion by morphometric analysis. Each airway section was assigned a score for airway diameter occlusion by mucus based on the following criteria: 0, no mucus; 1+, −10% occlusion; 2+, −30% occlusion; 3+, −50% occlusion; 4+, −80% occlusion; and 5+, −90-100% occlusion.

[3] = OVA immunized and challenged mice, HK-X pre-treatment, FIG. 14

**Q.** For `CSCC[C@H](NC=O)C(=O)N[C@@H](CC(C)C)C(=O)N[C@@H](Cc1ccccc1)C(=O)N[C@@H](Cc1ccccc1)C(=O)O` [HK-X, f-Met-Leu-Phe-Phe] (For-MLFF-OH; C-terminus assumed), which “mucus accumulation in the airway (mucus plug)” value ([1]; 8 doses of HK-X intranasally over 16 days, FIG. 5) is on record?
**A.** remarkagle reduction

**Q.** And the “numbers of infiltrating inflammatory cells including eosinophils and neutrophils per unit area” value ([1]; 8 intranasal doses over 16 days, FIG. 7)?
**A.** reduced

**Q.** What about the “granulomatous structures in the lung (numbers and sizes)” value ([1]; 8 intranasal doses over 16 days, FIG. 8) of the same compound?
**A.** reduces the numbers and sizes

**Q.** What about the “tachyphylaxis over treatment period” value ([1]; 16 day period of treatment) of the same compound?
**A.** tachyphylaxis did not occur

**Q.** What about the “number of inflammatory cells around airways and blood vessels” value ([1]; OVA immunized mice, 8 doses of 50 μg HK-X intranasally over 16 days, FIG. 2A) of the same compound?
**A.** clearly reduced

**Q.** What about the “collagen deposition in lung (fibrosis, trichrome stain)” value ([1]; OVA immunized mice, 8 intranasal doses of 50 μg over 16 days, FIG. 3A) of the same compound?
**A.** reduced level of collagen deposition

**Q.** What about the “number of inflammatory cells around airways and blood vessels” value ([2]; 8 doses over 16 days plus HK-X 30 min prior to allergic challenge, FIG. 11A) of the same compound?
**A.** clearly reduced

**Q.** And the “number of mucus containing cells in the airways (qualitative)” value ([2]; Alcian blue, FIG. 13A)?
**A.** dramatically reduced

**Q.** And the “total inflammatory cellular infiltration in association with airways and blood vessels” value ([2]; FIG. 15)?
**A.** significantly reduced

**Q.** What about the “reduction of airway mucus plug scores or airway occlusion” value ([2]; HK-X 15-30 min prior to OVA challenge, p<0.001, FIG. 16) of the same compound?
**A.** 78%

**Q.** And the “epithelial cells containing mucus” value ([2]; HK-X treated OVA challenged lungs, p<0.001, FIG. 17)?
**A.** 11.24±4.73%

**Q.** What about the “reduction of number of infiltrating eosinophils into lung tissue” value [2, 3] of the same compound?
**A.** 70%

**Q.** What about the “reduction of number of infiltrating neutrophils into lung tissue” value [2, 3] of the same compound?
**A.** 30%

**Q.** And the “collagen deposition in lung” value ([2]; OVA immunized and rechallenged mice, FIG. 12A)?
**A.** reduced level of collagen deposition

**Q.** And the “reduction of granuloma formation in the lung” value ([2]; p<0.001, FIG. 18)?
**A.** 3 fold
